Reference: publication doi:10.1101/2024.06.27.601040 (bioRxiv, 2024)

The chains behind the UniProt entries cited, without tags or fusion partners.
UniProt Q14764: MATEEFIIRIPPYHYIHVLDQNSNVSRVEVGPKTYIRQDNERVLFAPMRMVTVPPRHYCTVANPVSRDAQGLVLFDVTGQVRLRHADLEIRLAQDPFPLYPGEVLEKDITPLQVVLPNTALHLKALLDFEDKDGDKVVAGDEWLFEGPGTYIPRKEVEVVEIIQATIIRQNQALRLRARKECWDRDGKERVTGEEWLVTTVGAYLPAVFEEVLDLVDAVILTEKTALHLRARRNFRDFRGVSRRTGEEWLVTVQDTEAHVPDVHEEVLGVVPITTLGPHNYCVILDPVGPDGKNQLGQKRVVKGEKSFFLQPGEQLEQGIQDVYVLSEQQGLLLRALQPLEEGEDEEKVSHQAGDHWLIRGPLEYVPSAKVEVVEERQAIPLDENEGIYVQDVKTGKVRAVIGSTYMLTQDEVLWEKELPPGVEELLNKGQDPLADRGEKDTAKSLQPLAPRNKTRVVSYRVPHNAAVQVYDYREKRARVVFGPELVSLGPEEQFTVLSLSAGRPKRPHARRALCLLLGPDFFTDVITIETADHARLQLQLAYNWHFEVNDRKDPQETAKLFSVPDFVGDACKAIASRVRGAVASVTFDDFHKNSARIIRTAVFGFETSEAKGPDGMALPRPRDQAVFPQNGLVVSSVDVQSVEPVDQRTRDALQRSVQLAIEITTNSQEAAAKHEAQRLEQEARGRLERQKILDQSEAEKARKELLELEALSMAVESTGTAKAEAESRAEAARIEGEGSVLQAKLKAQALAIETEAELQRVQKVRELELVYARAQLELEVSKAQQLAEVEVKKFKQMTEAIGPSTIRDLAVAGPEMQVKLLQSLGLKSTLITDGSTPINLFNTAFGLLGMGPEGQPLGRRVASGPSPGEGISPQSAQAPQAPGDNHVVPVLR

B1: DAZAP1 (protein, UniProt Q96EP5 1-407)
chain: MNNSGADEIGKLFVGGLDWSTTQETLRSYFSQYGEVVDCVIMKDKTTNQSRGFGFVKFKDPNCVGTVLASRPHTLDGRNIDPKPCTPRGMQPERTRPKEGWQKGPRSDNSKSNKIFVGGIPHNCGETELREYFKKFGVVTEVVMIYDAEKQRPRGFGFITFEDEQSVDQAVNMHFHDIMGKKVEVKRAEPRDSKSQAPGQPGASQWGSRVVPNAANGWAGQPPPTWQQGYGPQGMWVPAGQAIGGYGPPPAGRGAPPPPPPFTSYIVSTPPGGFPPPQGFPQGYGAPPQFSFGYGPPPPPPDQFAPPGVPPPPATPGAAPLAFPPPPSQAAPDMSKPPTAQPDFPYGQYAGYGQDLSGFGQGFSDPSQQPPSYGGPSVPGSGGPPAGGSGFGRGQNHNVQGFHPYRR
B2: DARS2 (enzyme, UniProt Q6PI48 48-645)
chain: VVRTNTCGELRSSHLGQEVTLCGWIQYRRQNTFLVLRDFDGLVQVIIPQDESAASVKKILCEAPVESVVQVSGTVISRPAGQENPKMPTGEIEIKVKTAELLNACKKLPFEIKNFVKKTEALRLQYRYLDLRSFQMQYNLRLRSQMVMKMREYLCNLHGFVDIETPTLFKRTPGGAKEFLVPSREPGKFYSLPQSPQQFKQLLMVGGLDRYFQVARCYRDEGSRPDRQPEFTQIDIEMSFVDQTGIQSLIEGLLQYSWPNDKDPVVVPFPTMTFAEVLATYGTDKPDTRFGMKIIDISDVFRNTEIGFLQDALSKPHGTVKAICIPEGAKYLKRKDIESIRNFAADHFNQEILPVFLNANRNWNSPVANFIMESQRLELIRLMETQEEDVVLLTAGEHNKACSLLGKLRLECADLLETRGVVLRDPTLFSFLWVVDFPLFLPKEENPRELESAHHPFTAPHPSDIHLLYTEPKKARSQHYDLVLNGNEIGGGSIRIHNAELQRYILATLLKEDVKMLSHLLQALDYGAPPHGGIALGLDRLICLVTGSPSIRDVIAFPKSFRGHDLMSNTPDSVPPEELKPYHIRVSKPTDSKAERAH
B3: ALDH1A1 (enzyme, UniProt P00352 1-501)
chain: MSSSGTPDLPVLLTDLKIQYTKIFINNEWHDSVSGKKFPVFNPATEEELCQVEEGDKEDVDKAVKAARQAFQIGSPWRTMDASERGRLLYKLADLIERDRLLLATMESMNGGKLYSNAYLNDLAGCIKTLRYCAGWADKIQGRTIPIDGNFFTYTRHEPIGVCGQIIPWNFPLVMLIWKIGPALSCGNTVVVKPAEQTPLTALHVASLIKEAGFPPGVVNIVPGYGPTAGAAISSHMDIDKVAFTGSTEVGKLIKEAAGKSNLKRVTLELGGKSPCIVLADADLDNAVEFAHHGVFYHQGQCCIAASRIFVEESIYDEFVRRSVERAKKYILGNPLTPGVTQGPQIDKEQYDKILDLIESGKKEGAKLECGGGPWGNKGYFVQPTVFSNVTDEMRIAKEEIFGPVQQIMKFKSLDDVIKRANNTFYGLSAGVFTKDIDKAITISSALQAGTVWVNCYGVVSAQCPFGGFKMSGNGRELGEYGFHEYTEVKTVTVKISQKNS
B4: AKR1C3 (enzyme, UniProt P42330 1-323)
chain: MDSKHQCVKLNDGHFMPVLGFGTYAPPEVPRSKALEVTKLAIEAGFRHIDSAHLYNNEEQVGLAIRSKIADGSVKREDIFYTSKLWSTFHRPELVRPALENSLKKAQLDYVDLYLIHSPMSLKPGEELSPTDENGKVIFDIVDLCTTWEAMEKCKDAGLAKSIGVSNFNRRQLEMILNKPGLKYKPVCNQVECHPYFNRSKLLDFCKSKDIVLVAYSALGSQRDKRWVDPNSPVLLEDPVLCALAKKHKRTPALIALRYQLQRGVVVLAKSYNEQRIRQNVQVFEFQLTAEDMKAIDGLDRNLHYFNSDSFASHPNYPYSDEY
B5: HNRNPDL (protein, UniProt O14979 1-420)
chain: MEVPPRLSHVPPPLFPSAPATLASRSLSHWRPRPPRQLAPLLPSLAPSSARQGARRAQRHVTAQQPSRLAGGAAIKGGRRRRPDLFRRHFKSSSIQRSAAAAAATRTARQHPPADSSVTMEDMNEYSNIEEFAEGSKINASKNQQDDGKMFIGGLSWDTSKKDLTEYLSRFGEVVDCTIKTDPVTGRSRGFGFVLFKDAASVDKVLELKEHKLDGKLIDPKRAKALKGKEPPKKVFVGGLSPDTSEEQIKEYFGAFGEIENIELPMDTKTNERRGFCFITYTDEEPVKKLLESRYHQIGSGKCEIKVAQPKEVYRQQQQQQKGGRGAAAGGRGGTRGRGRGQGQNWNQGFNNYYDQGYGNYNSAYGGDQNYSGYGGYDYTGYNYGNYGYGQGYADYSGQQSTYGKASRGGGNHQNNYQPY
B6: TRO (protein, UniProt Q12816 1-1431)
chain: MDRRNDYGYRVPLFQGPLPPPGSLGLPFPPDIQTETTEEDSVLLMHTLLAATKDSLAMDPPVVNRPKKSKTKKAPIKTITKAAPAAPPVPAANEIATNKPKITWQALNLPVITQISQALPTTEVTNTQASSVTAQPKKANKMKRVTAKAAQGSQSPTGHEGGTIQLKSPLQVLKLPVISQNIHAPIANESASSQALITSIKPKKASKAKKAANKAIASATEVSLAATATHTATTQGQITNETASIHTTAASIRTKKASKARKTIAKVINTDTEHIEALNVTDAATRQIEASVVAIRPKKSKGKKAASRGPNSVSEISEAPLATQIVTNQALAATLRVKRGSRARKAATKARATESQTPNADQGAQAKIASAQTNVSALETQVAAAVQALADDYLAQLSLEPTTRTRGKRNRKSKHLNGDERSGSNYRRIPWGRRPAPPRDVAILQERANKLVKYLLVKDQTKIPIKRSDMLRDVIQEYDEYFPEIIERASYTLEKMFRVNLKEIDKQSSLYILISTQESSAGILGTTKDTPKLGLLMVILSVIFMNGNKASEAVIWEVLRKLGLRPGVRHSLFGEVRKLITDEFVKQKYLEYKRVPNSRPPEYEFFWGLRSYHETSKMKVLKFACRVQKKDPKDWAVQYREAVEMEVQAAAVAVAEAEARAEARAQMGIGEEAVAGPWNWDDMDIDCLTREELGDDAQAWSRFSFEIEARAQENADASTNVNFSRGASTRAGFSDGASISFNGAPSSSGGFSGGPGITFGVAPSTSASFSNTASISFGGTLSTSSSFSSAASISFGCAHSTSTSFSSEASISFGGMPCTSASFSGGVSSSFSGPLSTSATFSGGASSGFGGTLSTTAGFSGVLSTSTSFGSAPTTSTVFSSALSTSTGFGGILSTSVCFGGSPSSSGSFGGTLSTSICFGGSPCTSTGFGGTLSTSVSFGGSSSTSANFGGTLSTSICFDGSPSTGAGFGGALNTSASFGSVLNTSTGFGGAMSTSADFGGTLSTSVCFGGSPGTSVSFGSALNTNAGYGGAVSTNTDFGGTLSTSVCFGGSPSTSAGFGGALNTNASFGCAVSTSASFSGAVSTSACFSGAPITNPGFGGAFSTSAGFGGALSTAADFGGTPSNSIGFGAAPSTSVSFGGAHGTSLCFGGAPSTSLCFGSASNTNLCFGGPPSTSACFSGATSPSFCDGPSTSTGFSFGNGLSTNAGFGGGLNTSAGFGGGLGTSAGFSGGLSTSSGFDGGLGTSAGFGGGPGTSTGFGGGLGTSAGFSGGLGTSAGFGGGLVTSDGFGGGLGTNASFGSTLGTSAGFSGGLSTSDGFGSRPNASFDRGLSTIIGFGSGSNTSTGFTGEPSTSTGFSSGPSSIVGFSGGPSTGVGFCSGPSTSGFSGGPSTGAGFGGGPNTGAGFGGGPSTSAGFGSGAASLGACGFSYG
B7: TCAF1 (protein, UniProt Q9Y4C2 1-921)
chain: MATPSAAFEALMNGVTSWDVPEDAVPCELLLIGEASFPVMVNDMGQVLIAASSYGRGRLVVVSHEDYLVEAQLTPFLLNAVGWLCSSPGAPIGVHPSLAPLAKILEGSGVDAKVEPEVKDSLGVYCIDAYNETMTEKLVKFMKCGGGLLIGGQAWDWANQGEDERVLFTFPGNLVTSVAGIYFTDNKGDTSFFKVSKKMPKIPVLVSCEDDLSDDREELLHGISELDISNSDCFPSQLLVHGALAFPLGLDSYHGCVIAAARYGRGRVVVTGHKVLFTVGKLGPFLLNAVRWLDGGRRGKVVVQTELRTLSGLLAVGGIDTSIEPNLTSDASVYCFEPVSEVGVKELQEFVAEGGGLFVGAQAWWWAFKNPGVSPLARFPGNLLLNPFGISITSQSLNPGPFRTPKAGIRTYHFRSTLAEFQVIMGRKRGNVEKGWLAKLGPDGAAFLQIPAEEIPAYMSVHRLLRKLLSRYRLPVATRENPVINDCCRGAMLSLATGLAHSGSDLSLLVPEIEDMYSSPYLRPSESPITVEVNCTNPGTRYCWMSTGLYIPGRQIIEVSLPEAAASADLKIQIGCHTDDLTRASKLFRGPLVINRCCLDKPTKSITCLWGGLLYIIVPQNSKLGSVPVTVKGAVHAPYYKLGETTLEEWKRRIQENPGPWGELATDNIILTVPTANLRTLENPEPLLRLWDEVMQAVARLGAEPFPLRLPQRIVADVQISVGWMHAGYPIMCHLESVQELINEKLIRTKGLWGPVHELGRNQQRQEWEFPPHTTEATCNLWCVYVHETVLGIPRSRANIALWPPVREKRVRIYLSKGPNVKNWNAWTALETYLQLQEAFGWEPFIRLFTEYRNQTNLPTENVDKMNLWVKMFSHQVQKNLAPFFEAWAWPIQKEVATSLAYLPEWKENIMKLYLLTQMPH
B8: WDR11 (protein, UniProt Q9BZH6 1-1224)
chain: MLPYTVNFKVSARTLTGALNAHNKAAVDWGWQGLIAYGCHSLVVVIDSITAQTLQVLEKHKADVVKVKWARENYHHNIGSPYCLRLASADVNGKIIVWDVAAGVAQCEIQEHAKPIQDVQWLWNQDASRDLLLAIHPPNYIVLWNADTGTKLWKKSYADNILSFSFDPFDPSHLTLLTSEGIVFISDFSPSKPPSGPGKKVYISSPHSSPAHNKLATATGAKKALNKVKILITQEKPSAEFITLNDCLQLAYLPSKRNHMLLLYPREILILDLEVNQTVGVIAIERTGVPFLQVIPCFQRDGLFCLHENGCITLRVRRSYNNIFTTSNEEPDPDPVQELTYDLRSQCDAIRVTKTVRPFSMVCCPVNENAAALVVSDGRVMIWELKSAVCNRNSRNSSSGVSPLYSPVSFCGIPVGVLQNKLPDLSLDNMIGQSAIAGEEHPRGSILREVHLKFLLTGLLSGLPAPQFAIRMCPPLTTKNIKMYQPLLAVGTSNGSVLVYHLTSGLLHKELSIHSCEVKGIEWTSLTSFLSFATSTPNNMGLVRNELQLVDLPTGRSIAFRGERGNDESAIEMIKVSHLKQYLAVVFRDKPLELWDVRTCTLLREMSKNFPTITALEWSPSHNLKSLRKKQLATREAMARQTVVSDTELSIVESSVISLLQEAESKSELSQNISAREHFVFTDIDGQVYHLTVEGNSVKDSARIPPDGSMGSITCIAWKGDTLVLGDMDGNLNFWDLKGRVSRGIPTHRSWVRKIRFAPGKGNQKLIAMYNDGAEVWDTKEVQMVSSLRSGRNVTFRILDVDWCTSDKVILASDDGCIRVLEMSMKSACFRMDEQELTEPVWCPYLLVPRASLALKAFLLHQPWNGQYSLDISHVDYPENEEIKNLLQEQLNSLSNDIKKLLLDPEFTLLQRCLLVSRLYGDESELHFWTVAAHYLHSLSQEKSASTTAPKEAAPRDKLSNPLDICYDVLCENAYFQKFQLERVNLQEVKRSTYDHTRKCTDQLLLLGQTDRAVQLLLETSADNQHYYCDSLKACLVTTVTSSGPSQSTIKLVATNMIANGKLAEGVQLLCLIDKAADACRYLQTYGEWNRAAWLAKVRLNPEECADVLRRWVDHLCSPQVNQKSKALLVLLSLGCFFSVAETLHSMRYFDRAALFVEACLKYGAFEVTEDTEKLITAIYADYARSLKNLGFKQGAVLFASKAGAAGKDLLNELESPKEEPIEE

Target: endogenous MVP (native vault) of A549 cells (human (endogenous in A549)) (UniProt Q14764)
Assay: affinity purification with mass spectrometry

Binder | binding
B1 | binds
B2 | binds
B3 | binds
B4 | binds
B5 | binds
B6 | binds
B7 | binds
B8 | binds

These are yes or no findings as the source states them, for the method shown. Binding seen in cells or lysates may run through a third protein. Here binding means that the protein was enriched with, or labelled near, the bait; the list need not be complete.
